Laboratory results as given in patent publication US20230047208A1, “RNA Splicing Modulation” (The General Hospital Corporation, priority 2020, published 2023).
Further values from the same series stand in other lists.

Tested on: wildtype (WT) human fibroblast cell lines
Assay: Transcriptome-wide splicing by RNA sequencing (RNASeq), exon triplet PSI change;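 on Effect: six WT fibroblast lines treated seven days versus DMSO vehicle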;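 on T-PSI: T-PSI is average treated PSI after seven days of treatment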
Assay type: cell-based
Design: key to Effect: Exclusion; Inclusion; Unchanged
Excerpt: FIG. 2A provides a representation of an exon triplet. Exon U is upstream of Exon X, which is upstream of Exon D. R1, R2 and R3 represent RNA sequencing (RNASeq) reads spanning the regions between two adjacent exons. UI1, I1X, XI2 and I2D are four regions flanking the four splice sites of the exon-triplet. Each flanking region consists of 25 exonic base pairs and 75 intronic base pairs.
FIG. 2B provides a volcano plot showing the ψ (PSI: Percent Spliced-In) changes in splicing after treatment with Compound (I). Each dot represents one of the 161,097 expressed exon triplets in human fibroblasts. The x axis represents the ψ changes after treatment and the y axis represents the False Discovery Rate (FDR) (log 10 transformed). […] The horizontal dashed line indicates an FDR of 0.1. The dots on the right side of the right vertical dashed line and above the horizontal dashed line represent the exon-triplets with an increase for Exon X inclusion (Δψ≥0.1 and FDR<0.1) while the dots on left side of the left vertical dashed line and above the horizontal dashed line represent an increase for Exon X exclusion (Δψ≤−0.1 and FDR<0.1). Black dots in-between the two vertical dashed lines represent exon-triplets unchanged from the treatment.
In some aspects, analysis is performed on data derived from the assay to measure the magnitude of splicing to determine the amount of exons spliced into an mRNA transcript that is produced in the presence of Compound (I) relative to the amount in the absence of Compound (I) or presence of a negative control. In a preferred aspect, the method utilized is calculation of change in Percent Spliced In (ΔPSI). […] The ΔPSI value is derived from the formula: […]
The values for “a” and “b” represent the number of reads supporting the probability for potential inclusion or exclusion of an exon in an RNA transcript. The “a” value is derived from the number of reads within an exon triplet covering, in 5′ to 3′ order: the last few bases (>1 nucleotide) of an upstream exon operably linked to the first few bases (>1 nucleotide) of a middle exon. The “b” value is derived from the number of reads within an exon triplet covering, in 5′ to 3′ order: the last few bases (>1 nucleotide) of the middle exon operably linked to the first few bases (>1 nucleotide) of a downstream exon. The number of reads will indicate whether the splice junction of a middle exon has been identified as potentially having a CNN Motif(s) by the CNN Model described herein, wherein the inclusion or exclusion of the middle exon may be modulated in the presence of Compound (I) to produce one or more mature RNA isoforms from the gene transcript. The value for “c” represents the number of reads supporting the exclusion of the middle exon.
The effect on splicing modulation and corresponding splice differences toward exon inclusion or exclusion was determined by counting the RNASeq reads covering two splice junctions of exon triplets (three consecutive exons: Exon U, Exon X, Exon D) and the corresponding intervening introns, then comparing the change in Percent Spliced In (ΔPSI or Δψ) of the middle exon (Exon X) after treatment (as shown in FIG. 2A)^52,53. 934 exon triplets were identified showing differential middle exon inclusion or exclusion in response to Compound (I) treatment. Of these, 254 were exon inclusion events (Δψ≥0.1 and FDR<0.1) and 680 were exon exclusion events (Δψ≤−0.1 and FDR<0.1) (as shown in FIG. 2B). […] The splicing results were evaluated by RT-PCR in independent replicate experiments, confirming all the calculated Δψ values. […]

[1] = SPTAN1 Exon 131355262-131355321, seven days
[2] = SRSF2 Exon 74731854-74731957, seven days
[3] = ST6GALNAC6 Exon 130660235-130660289, seven days
[4] = ST7 Exon 116859138-116859230, seven days
[5] = ST7 Exon 116861977-116862116, seven days
[6] = STAG1 Exon 136287607-136287703, seven days
[7] = STAG2 Exon 123155217-123155281, seven days
[8] = STARD3 Exon 37814962-37815073, seven days
[9] = STARD3NL Exon 38218692-38218747, seven days
[10] = STARD4 Exon 110837660-110837786, seven days
[11] = STARD5 Exon 81615240-81615289, seven days
[12] = STAT6 Exon 57501442-57501526, seven days
[13] = STK16 Exon 220111835-220111968, seven days
[14] = STK19 Exon 31947191-31947330, seven days
[15] = STK38L Exon 27461272-27461394, seven days
[16] = STK40 Exon 36833449-36833685, seven days
[17] = STK40 Exon 36833453-36833685, seven days
[18] = STOML1 Exon 74281371-74281598, seven days
[19] = STOML1 Exon 74281449-74281598, seven days
[20] = STRA13 Exon 79977386-79977570, seven days
[21] = STRA13 Exon 79977517-79977570, seven days
[22] = STRADA Exon 61784607-61784778, seven days
[23] = STRN3 Exon 31388172-31388312, seven days
[24] = STX3 Exon 59564756-59564869, seven days
[25] = STX16-NPEPL1 Exon 57244347-57244509, seven days
[26] = STX16 Exon 57244347-57244509, seven days
[27] = STX16 Exon 57244358-57244509, seven days
[28] = STXBP3 Exon 109321908-109322032, seven days
[29] = STXBP5 Exon 147660473-147660520, seven days
[30] = STYXL1 Exon 75643060-75643205, seven days
[31] = SUCO Exon 172522400-172522510, seven days
[32] = SUGP2 Exon 19104447-19104549, seven days
[33] = SUGP2 Exon 19104457-19104549, seven days
[34] = SUGT1 Exon 53235610-53235705, seven days
[35] = SULF1 Exon 70408000-70408161, seven days
[36] = SULF1 Exon 70550737-70550879, seven days
[37] = SUN2 Exon 39150647-39150711, seven days
[38] = SUOX Exon 56391399-56391507, seven days

Clc1nc(NCc2ccncc2)c2cc[nH]c2n1 [Compound (I), 2-chloro-N-(pyridin-4-ylmethyl)-7H-pyrrolo[2,3-d]pyrimidin-4-amine]
ΔPSI (SPPL2A Exon 51018270-51018323, seven days): 0.378 | Effect [1]: Exc | T-PSI [1]: 0.040 | ΔPSI [1]: −0.249 | Effect [2]: Unc | T-PSI [2]: 0.113 | ΔPSI [2]: 0.001 | Effect [3]: Inc | T-PSI [3]: 0.659 | ΔPSI [3]: 0.130 | Effect [4]: Exc | T-PSI [4]: 0.857 | ΔPSI [4]: −0.137 | Effect [5]: Exc | T-PSI [5]: 0.771 | ΔPSI [5]: −0.218 | Effect [6]: Unc | T-PSI [6]: 0.885 | ΔPSI [6]: 0.007 | Effect [7]: Unc | T-PSI [7]: 0.279 | ΔPSI [7]: 0.002 | Effect [8]: Unc | T-PSI [8]: 0.871 | ΔPSI [8]: 0.009 | Effect [9]: Inc | T-PSI [9]: 0.195 | ΔPSI [9]: 0.108 | Effect [10]: Unc | T-PSI [10]: 0.760 | ΔPSI [10]: −0.008 | Effect [11]: Exc | T-PSI [11]: 0.780 | ΔPSI [11]: −0.169 | Effect [12]: Exc | T-PSI [12]: 0.732 | ΔPSI [12]: −0.124 | Effect [13]: Exc | T-PSI [13]: 0.703 | ΔPSI [13]: −0.216 | Effect [14]: Exc | T-PSI [14]: 0.773 | ΔPSI [14]: −0.171 | Effect [15]: Unc | T-PSI [15]: 0.898 | ΔPSI [15]: −0.008 | Effect [16]: Inc | T-PSI [16]: 0.358 | ΔPSI [16]: 0.221 | Effect [17]: Inc | T-PSI [17]: 0.551 | ΔPSI [17]: 0.309 | Effect [18]: Unc | T-PSI [18]: 0.818 | ΔPSI [18]: 0.001 | Effect [19]: Unc | T-PSI [19]: 0.898 | ΔPSI [19]: −0.004 | Effect [20]: Exc | T-PSI [20]: 0.142 | ΔPSI [20]: −0.226 | Effect [21]: Exc | T-PSI [21]: 0.249 | ΔPSI [21]: −0.261 | Effect [22]: Exc | T-PSI [22]: 0.833 | ΔPSI [22]: −0.129 | Effect [23]: Inc | T-PSI [23]: 0.187 | ΔPSI [23]: 0.110 | Effect [24]: Exc | T-PSI [24]: 0.629 | ΔPSI [24]: −0.239 | Effect [25]: Exc | T-PSI [25]: 0.495 | ΔPSI [25]: −0.327 | Effect [26]: Exc | T-PSI [26]: 0.495 | ΔPSI [26]: −0.327 | Effect [27]: Exc | T-PSI [27]: 0.335 | ΔPSI [27]: −0.380 | Effect [28]: Exc | T-PSI [28]: 0.862 | ΔPSI [28]: −0.128 | Effect [29]: Unc | T-PSI [29]: 0.827 | ΔPSI [29]: −0.002 | Effect [30]: Exc | T-PSI [30]: 0.572 | ΔPSI [30]: −0.177 | Effect [31]: Inc | T-PSI [31]: 0.967 | ΔPSI [31]: 0.362 | Effect [32]: Inc | T-PSI [32]: 0.908 | ΔPSI [32]: 0.106 | Effect [33]: Inc | T-PSI [33]: 0.902 | ΔPSI [33]: 0.111 | Effect [34]: Exc | T-PSI [34]: 0.285 | ΔPSI [34]: −0.126 | Effect [35]: Exc | T-PSI [35]: 0.446 | ΔPSI [35]: −0.206 | Effect [36]: Exc | T-PSI [36]: 0.702 | ΔPSI [36]: −0.209 | Effect [37]: Exc | T-PSI [37]: 0.221 | ΔPSI [37]: −0.132 | Effect [38]: Unc | T-PSI [38]: 0.626 | ΔPSI [38]: −0.005 | Effect (effect on middle exon of the exon triplet named in c0-c3 (gene, Intron1, Exon, Intron2), six WT human fibroblast cell lines treated with Compound (I) for seven days, RNASeq): Exc and Inc and Unc
